The target of assay [1] is T1, OsTGA3 (BiFC split-YFP fusion) (rice (Oryza sativa)) (UniProt Q6IVC3).
T1 sequence: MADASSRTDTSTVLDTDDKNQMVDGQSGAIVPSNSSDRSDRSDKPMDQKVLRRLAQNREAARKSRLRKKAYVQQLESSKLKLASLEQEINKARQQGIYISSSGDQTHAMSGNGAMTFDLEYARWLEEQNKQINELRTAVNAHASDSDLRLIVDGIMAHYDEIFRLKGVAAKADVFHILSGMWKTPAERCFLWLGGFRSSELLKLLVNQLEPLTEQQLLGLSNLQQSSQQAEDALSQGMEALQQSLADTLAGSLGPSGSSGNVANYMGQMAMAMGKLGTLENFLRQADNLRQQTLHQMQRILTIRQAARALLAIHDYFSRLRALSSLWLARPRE
As to the kind of experiment: split reporter; BiFC in rice protoplasts transfected using PEG; OsTGAs fused to cYFP (and nYFP for dimer tests), NHs fused to nYFP; reconstituted YFP seen by confocal microscopy.

In assay [2] the target is T2, OsTGA2 (yeast two-hybrid fusion) (rice (Oryza sativa)) (UniProt Q6IVC2).
T2 sequence: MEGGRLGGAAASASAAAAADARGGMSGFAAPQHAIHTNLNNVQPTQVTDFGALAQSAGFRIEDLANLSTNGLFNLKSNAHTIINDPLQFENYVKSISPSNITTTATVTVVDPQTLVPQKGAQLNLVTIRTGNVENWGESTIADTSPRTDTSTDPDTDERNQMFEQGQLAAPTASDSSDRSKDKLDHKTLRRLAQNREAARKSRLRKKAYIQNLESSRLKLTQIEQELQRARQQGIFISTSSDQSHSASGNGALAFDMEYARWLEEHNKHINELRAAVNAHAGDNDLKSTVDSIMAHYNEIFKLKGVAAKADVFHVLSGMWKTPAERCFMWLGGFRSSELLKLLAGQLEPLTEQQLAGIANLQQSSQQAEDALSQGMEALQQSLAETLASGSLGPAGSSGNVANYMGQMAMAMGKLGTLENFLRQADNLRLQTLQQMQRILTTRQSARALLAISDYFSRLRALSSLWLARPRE
As to the kind of experiment: two-hybrid; … Y2H system (Clontech); OsTGAs in pGBKT7 (bait), NHs or OsTGAs in pGADT7 (prey); co-transformed into yeast; growth on SD without leucine, tryptophan and histidine with 1 to 10 mM 3-AT; images on the third day.

Assay [3] has as its target T3, OsTGA3 (yeast two-hybrid fusion) (rice (Oryza sativa)) (UniProt Q6IVC3).
T3 sequence: T1 sequence
Described as above.

Assay [4] has as its target T4, OsTGA5 (yeast two-hybrid fusion) (rice (Oryza sativa)) (UniProt Q0JNL3).
T4 sequence: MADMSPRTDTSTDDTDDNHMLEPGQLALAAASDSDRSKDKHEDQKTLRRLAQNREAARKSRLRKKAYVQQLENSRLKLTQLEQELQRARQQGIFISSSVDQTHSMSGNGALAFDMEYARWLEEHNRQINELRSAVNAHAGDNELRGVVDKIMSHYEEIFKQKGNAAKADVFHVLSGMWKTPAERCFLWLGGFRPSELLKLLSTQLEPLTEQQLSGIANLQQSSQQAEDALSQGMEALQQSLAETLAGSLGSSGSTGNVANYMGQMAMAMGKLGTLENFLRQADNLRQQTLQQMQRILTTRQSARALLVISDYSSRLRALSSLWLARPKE
The description is as above.

For 2 substances, binding results are on record in publication PMC6239283.

No constants are given. Whether binding was seen depends on the method and setting. For some of these results: In cells and extracts the contact can be indirect. For some of these results: Binding calls can cover weak binding; strength is not graded here. Where a sequence is shown, tags or fusion partners need not be part of it.

As for “OsNH5, rice NPR1 homolog 5 (BiFC nYFP fusion)”, in assay [1], the binding entry is given as “binds weakly”.
“OsNH5, rice NPR1 homolog 5 (yeast two-hybrid fusion)”: the binding entry in assay [2], in assay [3] and in assay [4] was “no binding” each time.
